Measured data: PubChem BioAssay AID1259308 (NCATS, 2017)
The deposit covers about 59,000 reagents; this is a random part of them. About 1,510 of all reagents (2.6%) count as active. 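Calls use total luciferase alone and ignore viability, so some active siRNAs may act by altering cell number.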 Entries without a mark were called inactive. The numbers tell different reagents against one gene apart. Further read-outs or replicates are left out here.

- Aim: 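Candidate targets for better recombinant protein yield in mammalian cells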 (primary screen)
- System: human HEK293 embryonic kidney cells stably expressing firefly luciferase (HEK-CMV-Luc2-Hygro)
- Knock-down reagent: single siRNA against human genes, 0.8 pmol siRNA per well
- Duration: 72 h
- Measurement: 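Reporter luminescence and viable-cell signal on separate replicate plates, given as percent of non-targeting control and median/MAD z-scores, plus per-cell luciferase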
- Scale: total luciferase, z-score: higher = more reporter protein produced
- Active means: 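An siRNA counts as active if its total luciferase robust z-score exceeds 3; genes with two or more such siRNAs out of three were retested with fresh siRNAs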
- Meaning of the calls: active = raised luciferase; inactive = no rise

L1CAM (L1 cell adhesion molecule) #1 | total luciferase, z-score: 1.08
L1CAM (L1 cell adhesion molecule) #2 | total luciferase, z-score: 0.718
L1CAM (L1 cell adhesion molecule) #3 | total luciferase, z-score: -0.0467
MS4A2 (membrane spanning 4-domains A2) #1 | total luciferase, z-score: 3.54 (active)
MS4A2 (membrane spanning 4-domains A2) #2 | total luciferase, z-score: 0.167
MS4A2 (membrane spanning 4-domains A2) #3 | total luciferase, z-score: 1.88
PPBP (pro-platelet basic protein) #1 | total luciferase, z-score: 0.354
PPBP (pro-platelet basic protein) #2 | total luciferase, z-score: 0.385
PPBP (pro-platelet basic protein) #3 | total luciferase, z-score: 1.88
OR10H3 (olfactory receptor family 10 subfamily H member 3) #1 | total luciferase, z-score: 0.533
OR10H3 (olfactory receptor family 10 subfamily H member 3) #2 | total luciferase, z-score: -0.193
OR10H3 (olfactory receptor family 10 subfamily H member 3) #3 | total luciferase, z-score: -0.754
FOXB1 (forkhead box B1) #1 | total luciferase, z-score: 0.347
FOXB1 (forkhead box B1) #2 | total luciferase, z-score: -2.01
FOXB1 (forkhead box B1) #3 | total luciferase, z-score: 2.53
HILPDA (hypoxia inducible lipid droplet associated) #1 | total luciferase, z-score: 0.557
HILPDA (hypoxia inducible lipid droplet associated) #2 | total luciferase, z-score: 1.64
HILPDA (hypoxia inducible lipid droplet associated) #3 | total luciferase, z-score: -1.71
SINHCAF (SIN3-HDAC complex associated factor) #1 | total luciferase, z-score: 3.29 (active)
SINHCAF (SIN3-HDAC complex associated factor) #2 | total luciferase, z-score: -1.55
SINHCAF (SIN3-HDAC complex associated factor) #3 | total luciferase, z-score: 0.631

A portion from the list above, as a working copy:
FOXB1 (forkhead box B1) #3 | total luciferase, z-score: 2.53
HILPDA (hypoxia inducible lipid droplet associated) #1 | total luciferase, z-score: 0.557
